Measurements from patent publication US20250049660A1, “ENOL ETHER PROPERFUME” (FIRMENICH SA, priority 2021, published 2025).
Where “and” joins values, the source holds several entries; their conditions need not be identical. Identical values can stand only once. Counter-ions that a name gives are not always drawn.

Assay: Dynamic headspace analysis of line-dried cotton treated with liquid fabric softener
Conditions: ± standard deviation; for Dynamic headspace concentration of the perfumery raw material itself, reference: reference fabric softener with 0.075 mmol of each free volatile; for Dynamic headspace concentration of 2-phenylethanol, profragrance / Dynamic headspace concentration of 2-phenylethyl formate, profragrance / Dynamic headspace concentration of undecanal, profragrance / Dynamic headspace concentration of octanal, profragrance / Dynamic headspace concentration of 2-octanol, profragrance / Dynamic headspace concentration of 2-octanyl formate, profragrance / Dynamic headspace concentration of 3,7-dimethyloctane, profragrance / Dynamic headspace concentration of 3,7-dimethyloctanyl formate, profragrance / Dynamic headspace concentration of decanal, profragrance / Dynamic headspace concentration of citronellol, profragrance / Dynamic headspace concentration of citronellyl formate, profragrance: fabric softener

## CC(C=O)c1ccccc1 (stereo not drawn) [2-phenylpropanal, reference compound]
60 min sample (60-75 min)
  Dynamic headspace concentration of the perfumery raw material itself, reference: 4.8 ± 3.5 ng/L
120 min sample (120-135 min)
  Dynamic headspace concentration of the perfumery raw material itself, reference: 6.0 ± 4.9 ng/L

## CCCCCCCCCCC=COCCc1ccccc1 [Compound 1, (2-(dodec-1-en-1-yloxy)ethyl)benzene]
60 min sample (60-75 min)
  Dynamic headspace concentration of 2-phenylethanol, profragrance: 18.4 ± 1.6 ng/L
  Dynamic headspace concentration of 2-phenylethyl formate, profragrance: 128 ± 11.0 ng/L
  Dynamic headspace concentration of undecanal, profragrance: 195 ± 21.1 ng/L
120 min sample (120-135 min)
  Dynamic headspace concentration of 2-phenylethanol, profragrance: 20.9 ± 1.0 ng/L
  Dynamic headspace concentration of 2-phenylethyl formate, profragrance: 125 ± 9.3 ng/L
  Dynamic headspace concentration of undecanal, profragrance: 240 ± 4.9 ng/L

## CCCCCCCC=COCCc1ccccc1 [Compound 14, (2-(non-1-en-1-yloxy)ethyl)benzene]
60 min sample (60-75 min)
  Dynamic headspace concentration of 2-phenylethanol, profragrance: 13.8 ± 1.4 ng/L
  Dynamic headspace concentration of 2-phenylethyl formate, profragrance: 148 ± 28.9 ng/L
  Dynamic headspace concentration of octanal, profragrance: 366 ± 42.6 ng/L
120 min sample (120-135 min)
  Dynamic headspace concentration of 2-phenylethanol, profragrance: 17.7 ± 1.7 ng/L
  Dynamic headspace concentration of 2-phenylethyl formate, profragrance: 167 ± 41.9 ng/L
  Dynamic headspace concentration of octanal, profragrance: 270 ± 14.8 ng/L

## CCCCCCCCCCC=COC(C)CCCCCC (stereo not drawn) [Compound 13, 1-(octan-2-yloxy)dodec-1-ene]
60 min sample (60-75 min)
  Dynamic headspace concentration of 2-octanol, profragrance: 46.6 ± 9.8 ng/L
  Dynamic headspace concentration of 2-octanyl formate, profragrance: 28.5 ± 15 ng/L
  Dynamic headspace concentration of undecanal, profragrance: 132 ± 33.2 ng/L
120 min sample (120-135 min)
  Dynamic headspace concentration of 2-octanol, profragrance: 56.6 ± 12.8 ng/L
  Dynamic headspace concentration of 2-octanyl formate, profragrance: 29.9 ± 20.5 ng/L
  Dynamic headspace concentration of undecanal, profragrance: 155 ± 46.9 ng/L

## CCCCCCCCCCCC=O [dodecanal, reference compound]
60 min sample (60-75 min)
  Dynamic headspace concentration of the perfumery raw material itself, reference: 117 ± 13.2 ng/L
120 min sample (120-135 min)
  Dynamic headspace concentration of the perfumery raw material itself, reference: 145 ± 38.0 ng/L

## OCCOc1ccccc1 [2-phenoxyethan-1-ol, reference compound]
120 min sample (120-135 min)
  Dynamic headspace concentration of the perfumery raw material itself, reference: 9.7 ± 2.5 ng/L and 6.5 ± 1.4 ng/L

## CCCCCCCCCC=COCCC(C)CCCC(C)C (stereo not drawn) [Compound 11, 1-((3,7-dimethyloctyl)oxy)undec-1-ene]
60 min sample (60-75 min)
  Dynamic headspace concentration of 3,7-dimethyloctane, profragrance: 22.8 ± 6.4 ng/L
  Dynamic headspace concentration of 3,7-dimethyloctanyl formate, profragrance: 110 ± 36.6 ng/L
  Dynamic headspace concentration of decanal, profragrance: 296 ± 87.8 ng/L
120 min sample (120-135 min)
  Dynamic headspace concentration of 3,7-dimethyloctane, profragrance: 28.4 ± 11.2 ng/L
  Dynamic headspace concentration of 3,7-dimethyloctanyl formate, profragrance: 84.7 ± 25.6 ng/L
  Dynamic headspace concentration of decanal, profragrance: 302 ± 102.6 ng/L

## CC(C)=CCCC(C)CCOC=O (stereo not drawn) [citronellyl formate, reference compound]
60 min sample (60-75 min)
  Dynamic headspace concentration of the perfumery raw material itself, reference: 0.57 ± 0.29 ng/L
120 min sample (120-135 min)
  Dynamic headspace concentration of the perfumery raw material itself, reference: 0.5 ± 0.16 ng/L

## CCCCCCCCCCC=COCC [Compound 38, 1-ethoxydodec-1-ene, reference compound]
60 min sample (60-75 min)
  Dynamic headspace concentration of undecanal, profragrance: 6.3 ± 0.7 ng/L
120 min sample (120-135 min)
  Dynamic headspace concentration of undecanal, profragrance: 9.4 ± 1.2 ng/L

## CCCCCC(CC)OC=O (stereo not drawn) [3-octanyl formate, reference compound]
60 min sample (60-75 min)
  Dynamic headspace concentration of the perfumery raw material itself, reference: 12.8 ± 1.8 ng/L
120 min sample (120-135 min)
  Dynamic headspace concentration of the perfumery raw material itself, reference: 11.6 ± 1.5 ng/L

## CCCCCCCC=COCCC(C)CCC=C(C)C (stereo not drawn) [Compound 15, 1-((3,7-dimethyloct-6-en-1-yl)oxy)non-1-ene]
60 min sample (60-75 min)
  Dynamic headspace concentration of citronellol, profragrance: 24.2 ± 1.1 ng/L
  Dynamic headspace concentration of citronellyl formate, profragrance: 184 ± 20.2 ng/L
  Dynamic headspace concentration of octanal, profragrance: 473 ± 45.6 ng/L
120 min sample (120-135 min)
  Dynamic headspace concentration of citronellol, profragrance: 36.1 ± 2.2 ng/L
  Dynamic headspace concentration of citronellyl formate, profragrance: 163 ± 16.2 ng/L
  Dynamic headspace concentration of octanal, profragrance: 335 ± 41.5 ng/L

## O=COCCOc1ccccc1 [2-phenoxyethyl formate, reference compound]
60 min sample (60-75 min)
  Dynamic headspace concentration of the perfumery raw material itself, reference: 2.5 ± 0.9 ng/L and 1.9 ± 0.6 ng/L
120 min sample (120-135 min)
  Dynamic headspace concentration of the perfumery raw material itself, reference: 2.3 ± 0.8 ng/L and 2.3 ± 0.6 ng/L

## CC(C)=CCCC(C)CCO (stereo not drawn) [citronellol, reference compound]
60 min sample (60-75 min)
  Dynamic headspace concentration of the perfumery raw material itself, reference: 1.9 ± 0.3 ng/L
120 min sample (120-135 min)
  Dynamic headspace concentration of the perfumery raw material itself, reference: 2.0 ± 0.5 ng/L
